Molecules are shown by their SMILES.

The test system of series [1] is sulphonamide antibodies. Briefly: Multi-sulphonamide competitive immunoassay, covalent versus passive immobilisation of the antibodies. The class given is binding. The following applies: 10 ng/ml; for RLU Covalent: covalent immobilisation: direct spotting on to glycidoxy silane surface; for RLU Passive: passive immobilisation: direct spotting on to dichlorodimethylsilane-reacted surface. The text has this:
The % of binding due to covalent or passive interactions are compared in Tables 6 and 7. Covalent interaction contributed on average 81.8% to the overall binding, clearly indicating covalent binding of the sulphonamide antibodies.

The test system of series [2] is sulphonamide antibodies. Briefly: Multi-sulphonamide competitive immunoassay, antibodies on APTES ceramic substrates with dihydrazide linker, with or without periodate activation. The class given is binding. The procedure: Multi-sulphonamide standards (200 µl) and a cocktail of sulphonamide horseradish peroxidase conjugates (100 µl) were added to the reaction wells containing the device as appropriate and incubated for 15 minutes at room temperature. The standards contained 5, 10, 50 and 100 ng/ml for each of the 12 sulphonamides.
Thereafter the multi-sulphonamide devices were washed with PBS/PEG buffer to remove excess reagents and 300 µl chemiluminescent substrate [luminol (1.4mM)/urea hydrogen peroxide (9.6mM)] per device was introduced. The devices were imaged using a CCD camera with an exposure time of up to 4 minutes. Standard curves were obtained for each of the 12 individual sulphonamides. Calibration curves for each of the 12 individual sulphonamides are represented graphically in Figure 15. The % B/Bo value plotted on the Y-axis represents the % […] of the zero standard RLU (Relative light unit) value caused by each individual sulphonamide standard (plotted on the X-axis as log10).
In a further example, ceramic substrates silanated with APTES were reacted with a dihydrazide linker. Sulphonamide antibodies were treated with sodium periodate to render them reactive towards the hydrazide linker. Control sulphonamide antibodies were simply dialysed against sodium acetate buffer pH 5.5. The RLU results are shown in Tables 4 (not treated) and 5 (treated by periodate method). […] The control antibodies (no periodate activation) gave very poor standard curves when compared to the covalently immobilised sulphonamide antibodies.

Setting [3] is: 10 ng/ml standard, antibodies treated by periodate method, covalently immobilised (Table 5).
Where [4] appears, read: 10 ng/ml standard, control antibodies not treated with periodate (Table 4).
[5] abbreviates: 100 ng/ml standard, antibodies treated by periodate method, covalently immobilised (Table 5).
Where [6] appears, read: 100 ng/ml standard, control antibodies not treated with periodate (Table 4).

In the case of `COc1ncnc(NS(=O)(=O)c2ccc(N)cc2)c1OC` [Sulphadoxine, sulphadoxine], the “RLU Covalent” value in the series on sulphonamide antibodies [1] is given as 11131 RLU. Also, the “RLU Passive” value in the series on sulphonamide antibodies [1] is listed as 904 RLU. The RLU in the series on sulphonamide antibodies [2] (setting [3]) came to 3240 RLU; in the series with sulphonamide antibodies [2] (setting [4]) it was 1456 RLU; in the series with sulphonamide antibodies [2] (setting [5]), 2135 RLU.

Regarding `Cc1nnc(NS(=O)(=O)c2ccc(N)cc2)s1` [Sulphamethizole, sulphamethizole], the “RLU Covalent” value in the series on sulphonamide antibodies [1] was 11132 RLU. For the same compound, the “RLU Passive” value with sulphonamide antibodies [1] was found to be 1359 RLU. Also, the RLU with sulphonamide antibodies [2] (setting [3]) amounted to 5689 RLU; with sulphonamide antibodies [2] (setting [4]) it was 1257 RLU; in the series on sulphonamide antibodies [2] (setting [5]), 4882 RLU.

For the compound `COc1cc(NS(=O)(=O)c2ccc(N)cc2)nc(OC)n1` [Sulphadimethoxine, sulphadimethoxine], the “RLU Covalent” value with sulphonamide antibodies [1] amounted to 5832 RLU. Besides, in the series with sulphonamide antibodies [1], the “RLU Passive” value was found to be 581 RLU. Besides, the values for the RLU in the series with sulphonamide antibodies [2] (setting [3]), in the series on sulphonamide antibodies [2] (setting [5]) and in the series with sulphonamide antibodies [2] (setting [6]) were 2554 RLU, 1983 RLU and 781 RLU, respectively.

As for `Nc1ccc(S(=O)(=O)Nc2ccc(Cl)nn2)cc1` [Sulphachloropyridazine, sulphachloropyridazine], the “RLU Covalent” value in the series with sulphonamide antibodies [1] is on record as 8434 RLU. Also, in the series with sulphonamide antibodies [1], the “RLU Passive” value is given as 1051 RLU. Further, the RLU is given as 7565 RLU with sulphonamide antibodies [2] (setting [3]), 1585 RLU in the series with sulphonamide antibodies [2] (setting [4]) and 2096 RLU with sulphonamide antibodies [2] (setting [5]).

With `COc1ccc(NS(=O)(=O)c2ccc(N)cc2)nn1` [Sulphamethoxypyridazine, sulphamethoxypyridazine], the “RLU Covalent” value in the series with sulphonamide antibodies [1] came out at 13408 RLU. Moreover, the “RLU Passive” value in the series on sulphonamide antibodies [1] stood at 770 RLU. In addition, the RLU worked out at 10509 RLU in the series on sulphonamide antibodies [2] (setting [3]), 928 RLU in the series on sulphonamide antibodies [2] (setting [4]) and 5687 RLU in the series with sulphonamide antibodies [2] (setting [5]).

For the compound `Nc1ccc(S(=O)(=O)Nc2nccs2)cc1` [Sulphathiazole, sulphathiazole], in the series on sulphonamide antibodies [1], the “RLU Covalent” value came out at 8087 RLU. Also, the “RLU Passive” value with sulphonamide antibodies [1] is listed as 675 RLU. Also, the RLU is recorded as 4602 RLU with sulphonamide antibodies [2] (setting [3]), 814 RLU in the series on sulphonamide antibodies [2] (setting [4]) and 2353 RLU in the series with sulphonamide antibodies [2] (setting [5]).

For the compound `Cc1ccnc(NS(=O)(=O)c2ccc(N)cc2)n1` [Sulphamerazine, sulphamerazine], the “RLU Covalent” value in the series on sulphonamide antibodies [1] amounted to 11077 RLU. Besides, the “RLU Passive” value with sulphonamide antibodies [1] came out at 988 RLU. In addition, the RLU with sulphonamide antibodies [2] (setting [3]) is 5521 RLU; with sulphonamide antibodies [2] (setting [4]) it was 1137 RLU; with sulphonamide antibodies [2] (setting [5]), 3240 RLU; in the series with sulphonamide antibodies [2] (setting [6]), 1224 RLU.

Turning to `Cc1noc(NS(=O)(=O)c2ccc(N)cc2)c1C` [Sulphisoxazole, sulphisoxazole], in the series with sulphonamide antibodies [1], the “RLU Covalent” value is given as 5774 RLU. In addition, the “RLU Passive” value with sulphonamide antibodies [1] amounted to 1031 RLU. In addition, the RLU with sulphonamide antibodies [2] (setting [3]) was found to be 6686 RLU; in the series with sulphonamide antibodies [2] (setting [4]), 1108 RLU; with sulphonamide antibodies [2] (setting [5]), 2270 RLU.

In the case of `Nc1ccc(S(=O)(=O)Nc2cnc3ccccc3n2)cc1` [Sulphaquinoxaline, sulphaquinoxaline], the “RLU Covalent” value in the series with sulphonamide antibodies [1] was 8716 RLU. For the same compound, the “RLU Passive” value in the series on sulphonamide antibodies [1] is reported as 548 RLU. Moreover, the RLU in the series on sulphonamide antibodies [2] (setting [3]) is given as 6112 RLU; in the series with sulphonamide antibodies [2] (setting [4]), 828 RLU; in the series on sulphonamide antibodies [2] (setting [5]) it was 5588 RLU; with sulphonamide antibodies [2] (setting [6]) it was 968 RLU.

As for `Cc1cc(C)nc(NS(=O)(=O)c2ccc(N)cc2)n1` [Sulphamethazine, sulphamethazine], in the series on sulphonamide antibodies [1], the “RLU Covalent” value stood at 7535 RLU and the “RLU Passive” value was determined as 574 RLU. The same compound had an RLU in the series on sulphonamide antibodies [2] (setting [3]) of 2810 RLU. In the series with sulphonamide antibodies [2] (setting [5]), the RLU was determined as 2213 RLU.

The values above are taken from EP0874242A1, “Device and apparatus for the simultaneous detection of multiple analytes” (Randox Laboratories Ltd., priority 1997, dated 1998).
